Experimental data taken from the supplement of paper PMC10849652.
This is one part of the list.

Sequences of proteins named here, by UniProt entry; tags and fusion partners are left off. A change or cut given only in a name is not applied to a line headed by its entry.
UniProt P47756, whole entry, looked up: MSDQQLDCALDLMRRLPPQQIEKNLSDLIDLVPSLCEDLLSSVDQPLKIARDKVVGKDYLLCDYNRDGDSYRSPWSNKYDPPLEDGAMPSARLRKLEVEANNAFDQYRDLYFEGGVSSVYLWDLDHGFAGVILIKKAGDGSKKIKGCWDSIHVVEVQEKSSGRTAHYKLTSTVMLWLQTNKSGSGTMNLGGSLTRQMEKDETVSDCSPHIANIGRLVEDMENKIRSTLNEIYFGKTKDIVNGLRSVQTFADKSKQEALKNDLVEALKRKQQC
UniProt Q5T6V5: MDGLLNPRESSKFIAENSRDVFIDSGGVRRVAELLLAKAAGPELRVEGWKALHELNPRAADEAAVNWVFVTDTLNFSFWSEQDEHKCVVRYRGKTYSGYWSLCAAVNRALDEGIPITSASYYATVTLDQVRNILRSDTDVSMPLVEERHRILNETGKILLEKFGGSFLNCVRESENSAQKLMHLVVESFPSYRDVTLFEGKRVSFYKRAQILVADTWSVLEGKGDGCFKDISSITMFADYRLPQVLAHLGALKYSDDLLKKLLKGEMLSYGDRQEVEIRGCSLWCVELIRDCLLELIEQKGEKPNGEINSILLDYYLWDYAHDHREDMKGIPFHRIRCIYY
UniProt Q8N6N3: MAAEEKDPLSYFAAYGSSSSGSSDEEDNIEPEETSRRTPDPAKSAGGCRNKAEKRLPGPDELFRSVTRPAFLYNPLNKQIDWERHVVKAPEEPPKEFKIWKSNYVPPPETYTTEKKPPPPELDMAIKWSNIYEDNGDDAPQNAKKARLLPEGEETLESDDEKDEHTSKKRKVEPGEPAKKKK
UniProt Q96NL8: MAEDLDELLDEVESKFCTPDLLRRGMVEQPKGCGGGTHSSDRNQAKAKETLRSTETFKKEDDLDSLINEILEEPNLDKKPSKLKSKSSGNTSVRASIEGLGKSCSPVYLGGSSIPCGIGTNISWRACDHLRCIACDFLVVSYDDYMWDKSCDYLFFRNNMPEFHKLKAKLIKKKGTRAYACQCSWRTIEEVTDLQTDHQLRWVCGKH
UniProt O95873: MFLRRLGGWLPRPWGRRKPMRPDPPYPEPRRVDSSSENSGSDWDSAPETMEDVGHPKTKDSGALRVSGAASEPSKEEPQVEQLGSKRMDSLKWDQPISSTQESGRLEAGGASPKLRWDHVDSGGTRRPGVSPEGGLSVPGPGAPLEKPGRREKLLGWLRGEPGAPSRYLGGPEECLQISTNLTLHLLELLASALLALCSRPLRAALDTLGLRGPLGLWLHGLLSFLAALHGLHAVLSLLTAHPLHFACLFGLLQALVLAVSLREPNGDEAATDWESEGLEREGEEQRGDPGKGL
UniProt Q9HB71, whole entry, looked up: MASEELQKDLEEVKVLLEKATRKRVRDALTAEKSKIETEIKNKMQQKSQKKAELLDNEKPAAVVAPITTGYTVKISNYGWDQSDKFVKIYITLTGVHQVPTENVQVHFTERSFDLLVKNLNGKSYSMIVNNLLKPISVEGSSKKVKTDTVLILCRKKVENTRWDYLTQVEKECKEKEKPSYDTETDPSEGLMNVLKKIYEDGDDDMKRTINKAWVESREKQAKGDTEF
UniProt O60566, whole entry, looked up: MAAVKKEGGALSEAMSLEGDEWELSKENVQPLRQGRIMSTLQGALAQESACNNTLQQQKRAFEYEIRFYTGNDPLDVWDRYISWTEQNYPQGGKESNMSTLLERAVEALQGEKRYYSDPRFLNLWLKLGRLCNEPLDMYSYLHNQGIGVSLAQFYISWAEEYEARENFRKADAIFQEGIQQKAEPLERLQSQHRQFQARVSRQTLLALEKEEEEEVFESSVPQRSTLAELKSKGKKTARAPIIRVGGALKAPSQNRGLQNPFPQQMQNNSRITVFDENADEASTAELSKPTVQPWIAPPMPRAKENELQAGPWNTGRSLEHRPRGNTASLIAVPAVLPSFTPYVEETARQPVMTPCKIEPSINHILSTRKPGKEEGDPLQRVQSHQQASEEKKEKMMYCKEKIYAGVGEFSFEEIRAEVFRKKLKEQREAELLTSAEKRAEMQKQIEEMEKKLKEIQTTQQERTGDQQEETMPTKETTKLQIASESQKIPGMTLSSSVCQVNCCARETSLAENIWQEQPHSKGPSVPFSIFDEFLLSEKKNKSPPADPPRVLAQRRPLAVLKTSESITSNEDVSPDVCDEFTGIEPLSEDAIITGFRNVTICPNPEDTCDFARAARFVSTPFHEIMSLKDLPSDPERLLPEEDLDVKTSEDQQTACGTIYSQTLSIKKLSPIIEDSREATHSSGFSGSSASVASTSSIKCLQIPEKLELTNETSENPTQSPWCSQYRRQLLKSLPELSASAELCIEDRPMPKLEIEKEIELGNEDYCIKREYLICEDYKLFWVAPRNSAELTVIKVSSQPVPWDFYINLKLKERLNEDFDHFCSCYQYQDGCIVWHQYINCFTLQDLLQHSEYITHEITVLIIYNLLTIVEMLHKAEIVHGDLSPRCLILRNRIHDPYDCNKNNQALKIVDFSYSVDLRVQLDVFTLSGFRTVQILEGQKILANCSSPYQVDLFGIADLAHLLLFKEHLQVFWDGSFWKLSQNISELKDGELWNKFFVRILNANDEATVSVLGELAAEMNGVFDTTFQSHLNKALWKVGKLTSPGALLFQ
UniProt Q8N5S9: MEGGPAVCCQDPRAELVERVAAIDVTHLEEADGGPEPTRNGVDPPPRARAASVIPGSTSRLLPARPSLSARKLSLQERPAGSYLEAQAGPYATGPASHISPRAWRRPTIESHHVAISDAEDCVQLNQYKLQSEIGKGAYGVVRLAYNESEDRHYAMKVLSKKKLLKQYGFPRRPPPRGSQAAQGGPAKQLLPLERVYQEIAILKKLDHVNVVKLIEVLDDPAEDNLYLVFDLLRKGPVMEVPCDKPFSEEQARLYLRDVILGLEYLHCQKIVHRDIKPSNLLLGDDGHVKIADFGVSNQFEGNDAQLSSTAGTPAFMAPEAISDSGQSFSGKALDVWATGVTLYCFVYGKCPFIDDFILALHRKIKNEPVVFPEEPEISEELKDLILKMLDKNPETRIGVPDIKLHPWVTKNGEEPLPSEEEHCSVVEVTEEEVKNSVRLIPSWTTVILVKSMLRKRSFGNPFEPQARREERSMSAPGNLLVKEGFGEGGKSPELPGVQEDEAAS
UniProt Q13895: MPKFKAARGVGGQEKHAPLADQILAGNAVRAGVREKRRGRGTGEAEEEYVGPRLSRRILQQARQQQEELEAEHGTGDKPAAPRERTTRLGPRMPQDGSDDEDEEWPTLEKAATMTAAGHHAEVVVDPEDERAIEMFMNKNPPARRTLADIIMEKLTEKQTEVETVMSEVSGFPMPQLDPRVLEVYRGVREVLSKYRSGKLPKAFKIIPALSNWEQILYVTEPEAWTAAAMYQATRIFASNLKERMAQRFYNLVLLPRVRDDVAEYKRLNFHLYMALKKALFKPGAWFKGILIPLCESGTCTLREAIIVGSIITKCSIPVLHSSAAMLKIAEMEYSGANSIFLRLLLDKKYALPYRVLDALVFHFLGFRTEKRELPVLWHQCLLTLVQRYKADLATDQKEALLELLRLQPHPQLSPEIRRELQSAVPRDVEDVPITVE
UniProt Q13555: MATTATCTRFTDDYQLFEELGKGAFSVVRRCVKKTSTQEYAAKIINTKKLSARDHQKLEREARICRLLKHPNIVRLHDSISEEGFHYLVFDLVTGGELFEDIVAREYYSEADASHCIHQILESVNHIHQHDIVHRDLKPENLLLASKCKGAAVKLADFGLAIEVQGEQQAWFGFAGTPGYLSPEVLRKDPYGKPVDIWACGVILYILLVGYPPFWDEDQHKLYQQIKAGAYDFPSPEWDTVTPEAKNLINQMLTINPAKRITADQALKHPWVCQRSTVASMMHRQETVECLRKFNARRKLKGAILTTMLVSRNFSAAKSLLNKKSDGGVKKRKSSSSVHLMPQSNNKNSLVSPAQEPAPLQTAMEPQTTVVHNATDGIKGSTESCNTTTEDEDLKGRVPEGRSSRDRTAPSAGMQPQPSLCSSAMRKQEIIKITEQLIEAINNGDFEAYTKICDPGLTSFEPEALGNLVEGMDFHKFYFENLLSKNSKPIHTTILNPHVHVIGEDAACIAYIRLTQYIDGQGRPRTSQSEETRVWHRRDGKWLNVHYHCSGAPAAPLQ
UniProt O75808: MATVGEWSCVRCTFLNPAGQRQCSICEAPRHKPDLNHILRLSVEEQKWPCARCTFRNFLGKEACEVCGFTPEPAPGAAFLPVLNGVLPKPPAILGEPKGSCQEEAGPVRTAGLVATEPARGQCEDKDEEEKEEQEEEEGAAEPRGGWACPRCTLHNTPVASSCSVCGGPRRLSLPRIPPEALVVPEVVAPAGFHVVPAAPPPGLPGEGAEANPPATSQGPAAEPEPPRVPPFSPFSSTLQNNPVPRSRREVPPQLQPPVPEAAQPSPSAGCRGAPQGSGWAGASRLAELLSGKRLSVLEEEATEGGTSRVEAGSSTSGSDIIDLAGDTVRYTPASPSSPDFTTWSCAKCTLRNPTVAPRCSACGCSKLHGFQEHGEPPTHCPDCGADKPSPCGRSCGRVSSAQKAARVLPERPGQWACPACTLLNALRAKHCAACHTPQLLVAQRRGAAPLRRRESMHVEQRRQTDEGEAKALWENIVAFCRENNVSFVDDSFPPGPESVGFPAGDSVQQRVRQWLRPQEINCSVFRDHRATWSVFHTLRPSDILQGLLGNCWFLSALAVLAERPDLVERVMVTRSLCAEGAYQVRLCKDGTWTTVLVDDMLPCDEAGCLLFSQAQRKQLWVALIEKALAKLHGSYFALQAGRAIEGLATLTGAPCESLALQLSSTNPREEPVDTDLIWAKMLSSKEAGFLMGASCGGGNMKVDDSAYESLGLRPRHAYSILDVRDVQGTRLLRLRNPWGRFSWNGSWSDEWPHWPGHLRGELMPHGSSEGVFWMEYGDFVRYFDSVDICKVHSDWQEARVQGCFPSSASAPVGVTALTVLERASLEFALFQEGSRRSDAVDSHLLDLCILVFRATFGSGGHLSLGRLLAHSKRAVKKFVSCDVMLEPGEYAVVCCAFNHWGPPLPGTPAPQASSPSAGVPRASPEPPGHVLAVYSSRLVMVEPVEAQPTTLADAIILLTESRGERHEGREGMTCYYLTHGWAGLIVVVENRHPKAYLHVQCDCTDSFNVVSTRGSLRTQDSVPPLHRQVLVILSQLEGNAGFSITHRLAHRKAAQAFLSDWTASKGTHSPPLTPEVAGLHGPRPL
UniProt Q6P1X6: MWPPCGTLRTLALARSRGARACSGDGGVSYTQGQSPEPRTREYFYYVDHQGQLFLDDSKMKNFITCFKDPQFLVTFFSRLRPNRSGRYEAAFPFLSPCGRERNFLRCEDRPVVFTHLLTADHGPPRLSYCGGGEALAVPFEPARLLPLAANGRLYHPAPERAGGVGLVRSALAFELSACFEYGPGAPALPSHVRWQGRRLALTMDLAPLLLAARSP
UniProt P04632: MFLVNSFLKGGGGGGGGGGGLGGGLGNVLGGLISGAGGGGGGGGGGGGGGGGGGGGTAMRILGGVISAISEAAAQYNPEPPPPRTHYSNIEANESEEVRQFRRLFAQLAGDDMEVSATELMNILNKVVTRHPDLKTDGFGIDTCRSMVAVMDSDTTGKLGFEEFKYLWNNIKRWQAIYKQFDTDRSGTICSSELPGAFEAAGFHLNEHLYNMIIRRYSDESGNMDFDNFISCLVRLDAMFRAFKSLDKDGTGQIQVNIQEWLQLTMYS
UniProt Q8IXQ3: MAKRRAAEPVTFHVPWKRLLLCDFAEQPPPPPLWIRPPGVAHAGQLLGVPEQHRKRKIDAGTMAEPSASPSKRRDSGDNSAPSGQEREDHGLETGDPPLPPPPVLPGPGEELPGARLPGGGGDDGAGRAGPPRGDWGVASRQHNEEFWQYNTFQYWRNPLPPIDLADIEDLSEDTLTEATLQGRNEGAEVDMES
UniProt Q8WUQ7: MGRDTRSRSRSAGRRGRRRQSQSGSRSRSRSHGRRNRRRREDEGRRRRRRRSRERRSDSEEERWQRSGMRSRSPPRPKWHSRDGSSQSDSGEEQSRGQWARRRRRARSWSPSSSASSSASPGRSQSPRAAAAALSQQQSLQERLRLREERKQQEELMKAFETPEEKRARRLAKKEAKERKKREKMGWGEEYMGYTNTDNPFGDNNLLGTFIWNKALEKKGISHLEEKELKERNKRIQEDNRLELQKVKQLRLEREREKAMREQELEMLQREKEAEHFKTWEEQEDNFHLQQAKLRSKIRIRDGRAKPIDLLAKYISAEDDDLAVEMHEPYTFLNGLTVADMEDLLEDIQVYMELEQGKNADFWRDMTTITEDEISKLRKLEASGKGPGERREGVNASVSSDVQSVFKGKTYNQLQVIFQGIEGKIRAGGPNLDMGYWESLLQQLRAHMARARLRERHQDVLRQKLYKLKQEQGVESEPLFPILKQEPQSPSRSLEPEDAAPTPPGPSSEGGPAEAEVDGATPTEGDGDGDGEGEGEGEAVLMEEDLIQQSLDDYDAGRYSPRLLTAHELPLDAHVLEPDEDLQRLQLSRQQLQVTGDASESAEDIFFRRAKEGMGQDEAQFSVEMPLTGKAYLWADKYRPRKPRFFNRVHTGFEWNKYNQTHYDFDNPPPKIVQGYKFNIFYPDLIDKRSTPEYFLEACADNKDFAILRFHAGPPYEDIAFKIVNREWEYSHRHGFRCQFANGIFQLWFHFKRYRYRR

What was measured:
Test in all cases: log2 fold change, soluble protein after heating vs DMSO (PISA); higher = thermal stabilisation; K562 lysate, 10 uM; active = over 0.2 and 3.5 SD of the protein, either way, in both replicates (recomputed)
erlotinib = compound: C#Cc1cccc(Nc2ncnc3cc(OCCOC)c(OCCOC)cc23)c1 [erlotinib]
How it was run: (§1)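 A 30 min treatment with 10 μM compound was applied to crude K562 extract at 1 mg/mL protein in PBS pH 7.4 with 1 mM MgCl2. Heating for 3 min spanned 48°C-58°C, after which aliquots were pooled, adjusted to 0.5% NP-40 at 4°C and spun at 21,000xg for 90 min. TMTpro 16plex LC-MS/MS of the supernatant, with channel sums equalised, gave values recorded as log-two fold change in thermal stability against solvent controls, from duplicates.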

[1] = compound: C/C(=N\NC(=O)C1=CC(=CC=C1)S(=O)(=O)N2CCOCC2)/C3=C(C=CC(=C3)Cl)O
How it was run: as §1

[2] = compound: C1=CC(=CC=C1C2=NC3=C(N2)C=C(C=C3)C(=O)N)OC4=CC=C(C=C4)Cl
How it was run: as §1

[3] = compound: C1=CC2=C(C=CC(=C2)/C=C\3/C(=O)NC(=NCC4=CC=CS4)S3)N=C1
How it was run: as §1

[4] = compound: C1=CC2=NC=CN=C2C=C1/C=C/3\C(=O)NC(=O)S3
How it was run: as §1

[5] = compound: C1=CC=C(C=C1)C2=NC(=C(N2)C3=CC=NC=C3)C4=CC(=C(C=C4)Cl)O
How it was run: as §1

[6] = compound: C1=CC=C2C(=C1)C3=NNC4=CC=CC(=C43)C2=O
How it was run: as §1

[7] = compound: C1CCN(C1)C(=O)NC2=CC=CC(=C2)NC3=NC=C(C(=N3)NCCC4=CN=CN4)Br
How it was run: as §1

[8] = compound: C1CN(CCC1(CC2=CC=C(C=C2)Cl)N)C3=NC=NC4=C3C=CN4
How it was run: as §1

IRAK-1-4 Inhibitor I = compound: C1COCCN1CCN2C3=CC=CC=C3N=C2NC(=O)C4=CC(=CC=C4)[N+](=O)[O-] [IRAK-1-4 Inhibitor I]
How it was run: as §1

Measured: log2 fold change

CAPZB (UniProt P47756)
inactive: erlotinib -0.015 | [1] -0.014 | [2] 0.01 | [3] -0.007 | [4] -0.014 | [5] -0.025 | [6] 0.022 | [7] 0.008 | [8] 0.012 | IRAK-1-4 Inhibitor I -0.028

C9orf64 (UniProt Q5T6V5)
inactive: erlotinib 0.016 | [1] 0.037 | [2] 0.041 | [3] -0.003 | [4] 0.007 | [5] -0.006 | [6] -0.035 | [7] -0.006 | [8] -0.004 | IRAK-1-4 Inhibitor I -0.015

C7orf26 (UniProt Q96N11)
inactive: erlotinib -0.068 | [1] -0.016 | [2] 0.063 | [3] -0.053 | [4] -0.203 | [5] -0.037 | [6] -0.076 | [7] 0.026 | [8] 0.118 | IRAK-1-4 Inhibitor I -0.028

C1orf52 (UniProt Q8N6N3)
inactive: erlotinib -0.023 | [1] -0.036 | [2] 0.01 | [3] 0.014 | [4] -0.027 | [5] 0.037 | [6] 0.03 | [7] 0.003 | [8] -0.01 | IRAK-1-4 Inhibitor I 0.009

C1orf122 (UniProt Q6ZSJ8)
inactive: erlotinib 0.038 | [1] -0.039 | [2] 0 | [3] 0.06 | [4] -0.149 | [5] 0.019 | [6] -0.063 | [7] 0.079 | [8] 0.062 | IRAK-1-4 Inhibitor I 0.01

C19orf54 (UniProt Q5BKX5)
inactive: erlotinib -0.012 | [1] 0.042 | [2] 0.035 | [3] -0.025 | [4] 0.019 | [5] -0.004 | [6] 0.022 | [7] -0.012 | [8] -0.012 | IRAK-1-4 Inhibitor I 0.054

Two neighbouring entries out of the list so far:
C1orf122 (UniProt Q6ZSJ8)
inactive: erlotinib 0.038 | [1] -0.039 | [2] 0 | [3] 0.06 | [4] -0.149 | [5] 0.019 | [6] -0.063 | [7] 0.079 | [8] 0.062 | IRAK-1-4 Inhibitor I 0.01

C19orf54 (UniProt Q5BKX5)
inactive: erlotinib -0.012 | [1] 0.042 | [2] 0.035 | [3] -0.025 | [4] 0.019 | [5] -0.004 | [6] 0.022 | [7] -0.012 | [8] -0.012 | IRAK-1-4 Inhibitor I 0.054

Following part

CAPN2 (UniProt P17655)
inactive: erlotinib -0.022 | [1] -0.027 | [2] 0.002 | [3] 0.019 | [4] 0.001 | [5] -0.005 | [6] 0 | [7] -0.031 | [8] -0.007 | IRAK-1-4 Inhibitor I 0.012

C8orf37 (UniProt Q96NL8)
inactive: erlotinib -0.006 | [1] -0.174 | [2] 0.029 | [3] -0.064 | [4] 0.005 | [5] 0.001 | [6] 0.037 | [7] -0.067 | [8] 0.007 | IRAK-1-4 Inhibitor I -0.047

C6orf47 (UniProt O95873)
inactive: erlotinib 0.002 | [1] 0.053 | [2] 0.052 | [3] 0.001 | [4] 0.001 | [5] -0.034 | [6] 0.091 | [7] 0.031 | [8] 0.106 | IRAK-1-4 Inhibitor I 0.064

CACYBP (UniProt Q9HB71)
inactive: erlotinib 0 | [1] -0.008 | [2] 0.023 | [3] -0.031 | [4] -0.01 | [5] 0.011 | [6] 0 | [7] 0.002 | [8] 0.007 | IRAK-1-4 Inhibitor I -0.006

C1orf112 (UniProt Q9NSG2)
inactive: erlotinib -0.053 | [1] 0.015 | [2] 0.079 | [3] -0.008 | [4] -0.057 | [5] 0.026 | [6] 0 | [7] -0.046 | [8] 0.054 | IRAK-1-4 Inhibitor I -0.034

BUB1B isoform 3 (UniProt O60566)
inactive: erlotinib 0.019 | [1] 0.013 | [2] -0.002 | [3] -0.026 | [4] 0.01 | [5] 0.021 | [6] -0.039 | [7] -0.031 | [8] -0.008 | IRAK-1-4 Inhibitor I -0.016

CAMKK1 isoform 2 (UniProt Q8N5S9)
inactive: erlotinib -0.037 | [1] 0.042 | [2] -0.003 | [3] -0.085 | [4] 0.043 | [5] -0.01 | [6] 0.042 | [7] -0.076 | [8] -0.069 | IRAK-1-4 Inhibitor I 0.001

BYSL (UniProt Q13895)
inactive: erlotinib -0.006 | [1] -0.011 | [2] -0.032 | [3] 0.003 | [4] 0.013 | [5] -0.009 | [6] -0.029 | [7] 0.018 | [8] -0.005 | IRAK-1-4 Inhibitor I 0

C16orf58 (UniProt Q96GQ5)
inactive: erlotinib -0.013 | [1] -0.001 | [2] -0.145 | [3] 0.021 | [4] 0.02 | [5] 0.044 | [6] -0.113 | [7] 0 | [8] -0.037 | IRAK-1-4 Inhibitor I -0.027

CAMK2G isoform 8 (UniProt Q13555)
inactive: erlotinib 0.009 | [1] -0.193 | [2] 0.027 | [3] -0.094 | [4] 0.018 | [5] -0.027 | [6] 0.116 | [7] 0.026 | [8] 0.044 | IRAK-1-4 Inhibitor I 0.036

C18orf25 isoform 2 (UniProt Q96B23)
inactive: erlotinib 0.031 | [1] 0.098 | [2] -0.059 | [3] -0.002 | [4] 0.185 | [5] 0.055 | [6] -0.011 | [7] -0.01 | [8] -0.063 | IRAK-1-4 Inhibitor I 0.003

BUB1 (UniProt O43683)
inactive: erlotinib 0.045 | [1] -0.049 | [2] -0.045 | [3] -0.021 | [4] 0.019 | [5] 0.079 | [6] -0.073 | [7] -0.054 | [8] -0.048 | IRAK-1-4 Inhibitor I -0.033

CAPN15 (UniProt O75808)
inactive: erlotinib 0.01 | [1] 0.187 | [2] -0.011 | [3] -0.028 | [4] -0.104 | [5] -0.05 | [6] 0.026 | [7] 0.019 | [8] 0.031 | IRAK-1-4 Inhibitor I 0.01

C2CD2L (UniProt O14523)
inactive: erlotinib -0.037 | [1] 0.097 | [2] -0.019 | [3] 0.012 | [4] -0.054 | [5] -0.027 | [6] -0.077 | [7] -0.03 | [8] 0.08 | IRAK-1-4 Inhibitor I 0.032

C8orf82 (UniProt Q6P1X6)
inactive: erlotinib -0.042 | [1] 0.003 | [2] -0.023 | [3] 0.008 | [4] 0.028 | [5] 0.002 | [6] -0.077 | [7] 0.05 | [8] 0.026 | IRAK-1-4 Inhibitor I -0.012

C5orf22 (UniProt Q49AR2)
inactive: erlotinib -0.047 | [1] -0.073 | [2] 0.024 | [3] -0.01 | [4] 0.003 | [5] 0.024 | [6] -0.011 | [7] -0.007 | [8] 0.035 | IRAK-1-4 Inhibitor I -0.012

CAPNS1 (UniProt P04632)
inactive: erlotinib -0.066 | [1] 0.001 | [2] -0.023 | [3] 0.025 | [4] 0.006 | [5] -0.008 | [6] 0.082 | [7] -0.007 | [8] -0.039 | IRAK-1-4 Inhibitor I -0.005

C9orf40 (UniProt Q8IXQ3)
inactive: erlotinib -0.011 | [1] -0.688 | [2] -0.01 | [3] 0.035 | [4] 0.013 | [5] -0.108 | [6] 0.03 | [7] -0.028 | [8] 0.059 | IRAK-1-4 Inhibitor I 0.109

C5orf30 (UniProt Q96GV9)
inactive: erlotinib 0.037 | [1] -0.089 | [2] -0.035 | [3] -0.009 | [4] -0.118 | [5] 0.095 | [6] 0.003 | [7] 0 | [8] -0.003 | IRAK-1-4 Inhibitor I -0.029

C1GALT1C1 (UniProt Q96EU7)
inactive: erlotinib -0.03 | [1] 0.14 | [2] -0.016 | [3] -0.004 | [4] 0.032 | [5] -0.01 | [6] -0.057 | [7] -0.097 | [8] -0.037 | IRAK-1-4 Inhibitor I 0.018

CABIN1 (UniProt Q9Y6J0)
inactive: erlotinib -0.052 | [1] 0.03 | [2] 0.084 | [3] 0.045 | [4] 0.028 | [5] 0.02 | [6] 0.011 | [7] -0.04 | [8] -0.184 | IRAK-1-4 Inhibitor I -0.097

CACTIN isoform 2 (UniProt Q8WUQ7)
inactive: erlotinib 0.067 | [1] -0.002 | [2] -0.008 | [3] -0.023 | [4] -0.054 | [5] -0.032 | [6] 0.001 | [7] -0.032 | [8] 0.001 | IRAK-1-4 Inhibitor I 0.046

CAMSAP1 isoform 3 (UniProt Q5T5Y3)
inactive: erlotinib -0.017 | [1] -0.089 | [2] 0.003 | [3] 0 | [4] -0.036 | [5] 0.013 | [6] -0.011 | [7] -0.001 | [8] 0.008 | IRAK-1-4 Inhibitor I -0.009

CALM2 (UniProt P0DP24)
inactive: erlotinib -0.089 | [1] 0.042 | [2] 0.062 | [3] 0.028 | [4] -0.117 | [5] 0.094 | [6] 0.001 | [7] 0.039 | [8] 0.118 | IRAK-1-4 Inhibitor I 0.221
